According to paper PMC6697728:
These are yes or no findings as the source states them, for the method shown. In cells and extracts the contact can be indirect. Some binding calls cover weakened binding; strength is not graded here.

By UniProt entry, the sequences of proteins in these tests, tags left out. Residues count along the entry.
UniProt P29323, residues 19-1055: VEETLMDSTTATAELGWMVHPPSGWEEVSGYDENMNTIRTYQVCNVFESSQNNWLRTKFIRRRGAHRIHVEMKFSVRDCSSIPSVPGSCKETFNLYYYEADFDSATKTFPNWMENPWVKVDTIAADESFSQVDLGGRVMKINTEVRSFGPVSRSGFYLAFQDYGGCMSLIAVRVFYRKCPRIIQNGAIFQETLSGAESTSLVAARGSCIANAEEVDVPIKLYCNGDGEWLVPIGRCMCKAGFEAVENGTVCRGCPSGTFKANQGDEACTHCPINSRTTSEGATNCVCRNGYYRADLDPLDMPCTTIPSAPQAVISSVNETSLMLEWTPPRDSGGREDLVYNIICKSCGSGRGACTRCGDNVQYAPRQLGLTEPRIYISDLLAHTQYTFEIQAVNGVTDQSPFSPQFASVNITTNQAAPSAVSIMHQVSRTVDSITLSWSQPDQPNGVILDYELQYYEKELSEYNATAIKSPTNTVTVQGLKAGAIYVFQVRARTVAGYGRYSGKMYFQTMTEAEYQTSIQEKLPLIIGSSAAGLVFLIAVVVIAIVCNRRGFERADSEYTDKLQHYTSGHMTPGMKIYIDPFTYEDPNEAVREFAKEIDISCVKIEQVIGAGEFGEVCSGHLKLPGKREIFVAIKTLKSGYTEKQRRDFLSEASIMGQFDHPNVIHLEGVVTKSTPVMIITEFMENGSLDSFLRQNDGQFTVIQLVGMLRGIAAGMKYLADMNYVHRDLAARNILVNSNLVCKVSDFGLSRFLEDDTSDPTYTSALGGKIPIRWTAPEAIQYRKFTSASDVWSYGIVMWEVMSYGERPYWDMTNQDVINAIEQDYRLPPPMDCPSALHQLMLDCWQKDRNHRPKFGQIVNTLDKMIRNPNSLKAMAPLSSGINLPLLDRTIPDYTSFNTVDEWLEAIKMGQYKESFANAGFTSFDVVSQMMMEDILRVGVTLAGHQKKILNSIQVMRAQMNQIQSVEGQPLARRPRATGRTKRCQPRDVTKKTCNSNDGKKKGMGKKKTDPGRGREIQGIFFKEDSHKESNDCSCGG
UniProt Q9H3S7: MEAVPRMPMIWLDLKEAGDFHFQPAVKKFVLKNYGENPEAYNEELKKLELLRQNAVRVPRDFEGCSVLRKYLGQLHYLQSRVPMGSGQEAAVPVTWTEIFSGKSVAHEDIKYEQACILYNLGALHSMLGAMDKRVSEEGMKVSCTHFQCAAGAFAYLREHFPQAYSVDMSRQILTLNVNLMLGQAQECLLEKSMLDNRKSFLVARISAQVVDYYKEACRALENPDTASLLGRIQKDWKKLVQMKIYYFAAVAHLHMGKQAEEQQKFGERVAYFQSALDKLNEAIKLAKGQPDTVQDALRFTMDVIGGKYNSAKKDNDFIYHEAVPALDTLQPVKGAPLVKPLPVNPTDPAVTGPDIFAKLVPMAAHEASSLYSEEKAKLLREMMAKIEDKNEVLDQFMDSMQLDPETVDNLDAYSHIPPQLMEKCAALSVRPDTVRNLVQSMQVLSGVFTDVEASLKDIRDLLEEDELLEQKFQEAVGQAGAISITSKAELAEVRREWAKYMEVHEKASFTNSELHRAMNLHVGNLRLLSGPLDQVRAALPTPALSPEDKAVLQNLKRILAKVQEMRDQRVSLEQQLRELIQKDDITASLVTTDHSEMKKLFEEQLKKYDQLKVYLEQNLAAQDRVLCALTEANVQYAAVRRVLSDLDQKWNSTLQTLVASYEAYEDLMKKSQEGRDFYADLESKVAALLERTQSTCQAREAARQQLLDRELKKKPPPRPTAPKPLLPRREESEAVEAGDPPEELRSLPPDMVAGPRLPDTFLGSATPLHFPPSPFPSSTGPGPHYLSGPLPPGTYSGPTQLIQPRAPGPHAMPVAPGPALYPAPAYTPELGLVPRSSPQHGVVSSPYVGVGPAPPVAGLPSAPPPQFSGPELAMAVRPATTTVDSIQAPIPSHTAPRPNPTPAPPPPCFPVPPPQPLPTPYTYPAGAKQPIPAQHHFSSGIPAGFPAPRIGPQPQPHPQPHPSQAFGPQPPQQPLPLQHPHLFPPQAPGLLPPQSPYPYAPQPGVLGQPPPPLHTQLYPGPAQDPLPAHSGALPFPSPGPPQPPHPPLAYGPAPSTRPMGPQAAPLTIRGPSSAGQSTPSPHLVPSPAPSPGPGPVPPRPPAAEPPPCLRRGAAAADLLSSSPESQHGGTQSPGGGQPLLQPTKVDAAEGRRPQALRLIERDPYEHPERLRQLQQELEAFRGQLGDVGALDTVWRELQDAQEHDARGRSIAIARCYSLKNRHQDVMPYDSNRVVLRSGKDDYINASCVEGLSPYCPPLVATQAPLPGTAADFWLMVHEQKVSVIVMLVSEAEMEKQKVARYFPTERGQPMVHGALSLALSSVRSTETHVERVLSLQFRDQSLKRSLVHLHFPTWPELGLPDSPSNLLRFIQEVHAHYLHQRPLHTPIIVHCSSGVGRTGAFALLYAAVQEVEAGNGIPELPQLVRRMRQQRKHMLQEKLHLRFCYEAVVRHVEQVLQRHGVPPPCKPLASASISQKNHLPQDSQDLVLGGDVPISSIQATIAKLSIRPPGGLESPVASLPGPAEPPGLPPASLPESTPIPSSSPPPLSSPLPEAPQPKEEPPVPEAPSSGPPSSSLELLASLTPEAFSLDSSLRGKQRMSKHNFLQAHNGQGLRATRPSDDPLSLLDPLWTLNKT

Assays:
EphB2-BirA*-FLAG [1] = target: EphB2-BirA*-FLAG (UniProt P29323); test: condition: only without ephrin-B2-Fc stimulation (Fc or medium); co-IP; as a2 but cells treated with Fc (1.5 ug/mL, pre-clustered) or medium instead of eB2
EphB2-BirA*-FLAG [2] = target: EphB2-BirA*-FLAG (UniProt P29323); test: co-IP; EphB2-OE HEK293 transfected with HD-PTP-HA, stimulated 15 min with 1.5 ug/mL pre-clustered eB2 at 37 C; CHAPS lysis buffer; anti-FLAG beads 3 h at 4 C; blot for HA

binding (EphB2-BirA*-FLAG [1]): no binding
binding (EphB2-BirA*-FLAG [2]): binds
Substance: HD-PTP-HA (from UniProt Q9H3S7 1-1636)
